Source: PubChem BioAssay (NCATS)
Inconclusive results, whose numbers are uncertain, are shown with a selection of clear calls. A potency beside an inconclusive call is a rough fit, not a confirmed value. Calls of active or inactive are those of the source. The call rests on the fitted dose curve; in most records, active means well fitted cell-killing curve with a large enough effect; inconclusive means small, poorly fitted or top-dose-only effect; inactive means flat fitted curve, though single readings scatter.

assay: Quantitative highthroughput screen to assess conditional lethalithy of P12 Ichikawa cells grown in RPMI1640 with dialyzed fetal bovine serum (RPMI+ds) (AID 1963880); details: ATP luminescence, 48 h; Potency: P12-Ichikawa viability; series mostly up to 45.8 µM; further: nearly all actives have a fitted effect of over 35% in size
Text: Assay Provider: Jason Cantor Ph.D.
Department of Biochemistry
University of Wisconsin-Madison, Madison, WI, USA
Chemical screening studies have identified drug sensitivities across hundreds of cancer cell lines but most putative therapeutics fail to translate. Discovery and development of drug candidates in models that more accurately reflect nutrient levels in human blood is a major challenge. Here we performed high-throughput screens in conventional versus Human Plasma-Like Medium (HPLM) to identify compounds that were "missed" when screening using the artificial culture condition. Sets of conditional anticancer compounds spanned phases of clinical development and included non-oncology drugs were assessed. […] We also traced conditional phenotypes for several chemotherapeutics to availability of HPLM-specific metabolites and confirmed others for compounds whose reported targets are encoded by nonessential genes. Our findings establish generalizable strategies for exploiting conditional lethality in HPLM to reveal therapeutic candidates and mechanisms of action in cancer cells.
Described herein are the results of each viability screens against three cell lines: NOMO1 (an acute myeloid leukemia cell line); P12-Ichikawa (a T-cell acute lymphoblastic leukemia); and SEM (a B-cell ALL). Each assay was screened using 3 different cell culture media: homemade human plasma-Like medium with 10% dialyzed fetal bovine serum (HPLM+ds); RPMI1640 with 10% untreated FBS and 5mM glucose (RPMI+s); and RPMI1640 with 10% dialyzed fetal bovine serum and 5 mM glucose (RPMI+ds).
PROTOCOL TABLE (as described by Inglese J, Shamu CE and Guy RK. 2007)
SEQUENCE No. (e.g., 1, 2, 3, etc.); […] (e.g., Cells, Incubation, Reagent, etc.); VALUE and DESCRIPTION.
1; Cells; 5 uL; white, solid bottom 1536-well Greiner assay plate.
2; Compounds; 23 nL; Kalypsis pin tool (Wako USA) equipped with a 1536-well pin head to transfer to the assay plates.
3; Incubation; 48 hours; 37C incubation.
4; Reagent; 3 uL; CellTiter Glo (Promega).
5; Incubation; 5 min, room temperature
6; Detection; Luminescence, Viewlux PerkinElmer.
NOTES (numbers refer to Sequence numbers above)
1. Briefly, 5 ul of cell reagent was dispensed using a Multidrop Combi Dispenser. The NOMO1 and SEM cells were plated at 500 cells/well and the P12-Ichikawa line at 1000 cells/well.
2. After seeding the cells, 23 nL of MIPE 4.1 library compounds (in DMSO) were added to each plate using a Kalypsys 1536 Pintool dispenser. Bortezomib at final concentration of […] and DMSO were added to each plate as positive and negative controls respectively. For each screen, MIPE 4.1 compounds were added over an eleven-point concentration range […] in 3-fold dilutions.
3. Each plate was covered with a stainless steel gasketed lid to prevent evaporation and incubated for 48 hour at 37C, 95% relative humidity, and 5% CO2.
4-5. Three microliter CellTilter-GloTM luminescent substrate mix (Promega) reagent was added to the assay plate and incubated at room temperature for 5 min.
6. The luminescence signal was measured using a ViewLux (PerkinElmer) multiplate reader with a 2 second exposure time per plate. Data for each compound were normalized as percent viability such that measurements for DMSO and the empty well controls in each plate were defined as 100% and 0%, respectively.
Potency means the concentration at half of the fitted maximal effect.

| SMILES | Potency |
| --- | --- |
| COc1ccc(N(C(=O)Oc2c(C)cccc2C)c2ccnc(Nc3ccc(N4CCN(C)CC4)cc3)n2)c(OC)c1 | inconclusive: 23.5 µM [cytotoxic, single point] |
| c1ccc(CCCN2CCN(CCOC(c3ccccc3)c3ccccc3)CC2)cc1 | inconclusive: 23.5 µM [cytotoxic, partial curve] |
| COc1ccc2c(c1)CN(C)CC2c1ccc(Cl)c(Cl)c1 (stereo not given) | inconclusive: 14.8 µM [cytotoxic, partial curve, poor fit] |
| COC[C@H]1OC(=O)c2coc3c2[C@@]1(C)C1=C(C3=O)[C@@H]2CC[C@H](O)[C@@]2(C)C[C@@H]1OC(C)=O | inconclusive: 16.6 µM [cytotoxic, partial curve, poor fit] |
| CC(N[C@H]1C[C@H]1c1ccccc1)c1ccc2c(c1)OCCO2 (stereo not given in full) | inactive |
| C[C@H]([C@H](O)CCC(C)(C)O)[C@H]1CC[C@@]2(O)C3=CC(=O)[C@@H]4C[C@@H](O)[C@@H](O)C[C@]4(C)[C@@H]3CC[C@]12C | inactive |
| CC(=O)N(C)c1cccc(-c2ccnc3c(C(=O)c4cccs4)cnn23)c1 | inactive |
| CCCN1CCO[C@@H]2c3cc(O)ccc3OC[C@@H]21 | active: 26.4 µM |
| C=C[C@@H]1CN2CCC1C[C@@H]2[C@@H](O)c1ccnc2ccccc12 (stereo not given in full) | inactive |
| O=c1cccc2n1CC1CNC[C@H]2C1 | inconclusive: 18.7 µM [cytotoxic, partial curve] |
| CCN(CC)C(=O)c1ccc(C2=CC3(CCNCC3)Oc3cccc(O)c32)cc1 | inactive |
| Cc1[nH]nc2ccc(-c3cncc(OC[C@@H](N)Cc4c[nH]c5ccccc45)c3)cc12 | active: 1.05 µM |
| C[C@]12CC[C@@H]3c4ccc(OC(=O)N(CCCl)CCCl)cc4CC[C@H]3[C@@H]1CC[C@@H]2OP(=O)(O)O | inactive |
| O=C(Oc1ccc([N+](=O)[O-])cc1)N1CCN(Cc2cccc(Oc3ccccc3)c2)CC1 | inactive |
| Fc1ccc(C(OCCN2CCN(CCCc3ccccc3)CC2)c2ccc(F)cc2)cc1 | inconclusive: 37.2 µM [cytotoxic, single point] |
| CC1=C(O)C(=O)C=C2C1=CC=C1[C@@]2(C)CC[C@@]2(C)[C@@H]3C[C@](C)(C(=O)O)CC[C@]3(C)CC[C@]12C | active: 2.64 µM |
| N[C@@H](Cc1ccc(N(CCCl)CCCl)cc1)C(=O)O | active: 5.9 µM |
| O=C(O)CCCc1ccc(N(CCCl)CCCl)cc1 | inconclusive: 29.6 µM [cytotoxic, single point] |
| C=C1C[C@H]2[C@H]3CCC(=O)[C@@]3(C)CC[C@@H]2[C@@]2(C)C=CC(=O)C=C12 | inconclusive: 37.2 µM [cytotoxic, single point] |
| COc1ccc2c(c[n+](C)c3c4cc5c(cc4ccc23)OCO5)c1OC | active: 14.8 µM |

| SMILES | Potency |
| --- | --- |
| COC[C@H]1OC(=O)c2coc3c2[C@@]1(C)C1=C(C3=O)C2CCC(=O)[C@@]2(C)C[C@H]1OC(C)=O (stereo not given in full) | inactive |
| CC(=Cc1csc(C)n1)[C@@H]1C[C@H]2O[C@@H]2CCC[C@H](C)[C@@H](O)[C@@H](C)C(=O)C(C)(C)[C@@H](O)CC(=O)O1 | inconclusive: 0.0012 µM [cytotoxic, full curve] |
| CC(C)CC(N(C)C)C1(c2ccc(Cl)cc2)CCC1 (stereo not given) | inconclusive: 1.66 µM [cytotoxic, full curve] |
| CC(=O)O[C@@]12CO[C@H]1C[C@H](O)[C@@]1(C)C(=O)[C@H](O)C3=C(C)[C@@H](O)C[C@@](O)([C@@H](OC(=O)c4ccccc4)[C@@H]21)C3(C)C | active: 11.8 µM |
| O=C(N[C@@H](COc1ccc2[nH]c(=O)[nH]c2c1)c1ccccc1)c1cccn(Cc2ccc(F)c(F)c2)c1=O | inconclusive: 3.72 µM [cytotoxic, partial curve] |
| Cc1c(N)nc([C@H](CC(N)=O)NC[C@@H](N)C(N)=O)nc1C(=O)N[C@H](C(=O)N[C@@H](C)[C@H](O)[C@@H](C)C(=O)N[C@@H](C(=O)NCCc1nc(-c2nc(C(=O)NCCC[S+](C)C)cs2)cs1)[C@@H](C)O)C(O[C@H]1O[C@H](CO)[C@H](O)[C@@H](O)[C@@H]1O[C@H]1O[C@H](CO)[C@@H](O)[C@H](OC(N)=O)[C@H]1O)c1cnc[nH]1 (stereo not given in full) | inconclusive: 5.9 µM [cytotoxic, full curve] |
| CCN1C[C@]2(OC(=O)c3ccccc3NC(C)=O)CC[C@H](OC)[C@@]34[C@H]5CC6[C@@H](OC)C[C@](O)(C(C[C@@H]23)[C@@H]14)[C@@]5(O)[C@@H]6OC | inactive |
| CNC(=O)c1ccc(N2C(=S)N(c3ccc(C#N)c(C(F)(F)F)c3)C(=O)C23CCC3)cc1F | inactive |
| C[C@@]12OC(=O)[C@]1([C@@H](O)[C@@H]1C=CCCC1)NC(=O)[C@H]2CCCl | active: 0.187 µM |
| COc1cc(OC)c(OC)cc1C=O | inconclusive: 20.9 µM [rising, partial curve, poor fit] |
| C[C@@H]1[C@@H](C(=O)C[C@H]2O[C@@H]3O[C@]4(C)CC[C@@H]5[C@H](C)CC[C@@H]([C@H]2C)[C@@]35OO4)O[C@@H]2O[C@]3(C)CC[C@H]4[C@H](C)CC[C@@H]1[C@@]24OO3 | active: 16.6 µM |
| Cc1c(C(=O)Nc2cccc(C(F)(F)F)c2)cc(-c2ccccc2)n1CCCN1CCOCC1 | inconclusive: 20.9 µM [cytotoxic, partial curve, poor fit] |
| CC1=C2C[C@@H]3[C@@H](CC=C4C[C@@H](O)CC[C@@]43C)[C@@H]2CC[C@]12O[C@H]1C[C@H](C)CN[C@H]1[C@H]2C | inactive |
| COC[C@@H](NC(C)=O)C(=O)NCc1ccccc1 | inconclusive: 37.2 µM [cytotoxic, single point] |
| COCC1(CO)C(=O)C2CCN1CC2 (stereo not given) | inconclusive: 14.8 µM [cytotoxic, partial curve] |
| C[C@H]1CCCC=CC2C[C@H](O)C[C@@H]2[C@H](O)C=CC(=O)O1 (stereo not given in full) | active: 0.0235 µM |
| C1=C2CCCN[C@H]2[C@@H]2C[C@H]1[C@@H]1CCCCN1C2 | inconclusive: 37.2 µM [cytotoxic, single point] |
| CC(C)(O)C=CC(=O)[C@](C)(O)[C@H]1[C@H](O)C[C@]2(C)[C@@H]3CC=C4[C@@H](C=C(O)C(=O)C4(C)C)[C@]3(C)C(=O)C[C@@]12C | active: 0.166 µM |
| CC[C@@]1(O)C(=O)OCc2c1cc1n(c2=O)Cc2cc3ccccc3nc2-1 | active: 0.0209 µM |

Structural class: the compounds so far containing an aryl methoxy group (4)

| SMILES | Potency |
| --- | --- |
| COc1ccc(N(C(=O)Oc2c(C)cccc2C)c2ccnc(Nc3ccc(N4CCN(C)CC4)cc3)n2)c(OC)c1 | inconclusive: 23.5 µM [cytotoxic, single point] |
| COc1ccc2c(c1)CN(C)CC2c1ccc(Cl)c(Cl)c1 (stereo not given) | inconclusive: 14.8 µM [cytotoxic, partial curve, poor fit] |
| COc1ccc2c(c[n+](C)c3c4cc5c(cc4ccc23)OCO5)c1OC | active: 14.8 µM |
| COc1cc(OC)c(OC)cc1C=O | inconclusive: 20.9 µM [rising, partial curve, poor fit] |
